SMILES strings stand for the structures. The list shows a part of the results. These are further read-outs of the screen, such as a control signal, another cell line or another target. No call is given for them. Most of these compounds were active or inconclusive in the main read-out, so they are no random draw. Words in brackets tell the shape of the fitted curve; partial curves, single points and poor fits give uncertain potencies.

The assay can be described thus: qHTS Assay for Lipid Storage Modulators in Drosophila S3 Cells.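 For cell number change: cells counted by Cell Tracker Red CMTPX staining in the red channel.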 The following applies: BODIPY lipid droplet fluorescence, 18-24 h; for cell number change: measured here: cell count max response, cells fed with added oleic acid. The method in brief:
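Drosophila S3 cells got compounds at several concentrations plus oleic acid (400 uM solution). Laser-scanning cytometry with 488 nm excitation read lipid droplets at 500-530 nm and cells at 575-640 nm. Percent activity was relative to 20 uM Triacsin C.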
In general terms: Quantitative high-throughput screening tests each substance at several concentrations.

[1] abbreviates: measured here: cell number channel AC50, cells fed with added oleic acid.
[2] abbreviates: measured here: lipid fluorescence (Fed channel) AC50, cells fed with added oleic acid.

In general, AC50 refers to the midpoint of the concentration-response curve, whichever way the signal moves. Low values mean greater potency, high ones weaker potency. `Nc1cc(N)nc(SCC(=O)N2CCN(C(=O)c3ccco3)CC2)n1`: the cell number change was found to be 37.3%. The AC50 under setting [1] is 29100 nM [rising, single point]. The AC50 under setting [2] is 4110 nM [falling, full curve].
As for `COc1ccc(S(=O)(=O)N2CCN(C3CC4CCC3C4)CC2)cc1` (stereo not drawn), the cell number change was -11.3%. In addition, under setting [2], the AC50 was 6510 nM [falling, single point].
Turning to `CCC(=O)Nc1ccc2nc(C3CC3)n(Cc3ccccc3)c(=O)c2c1`, the cell number change worked out at 20.6%. For the same compound, the AC50 under setting [2] is 82 nM [rising, full curve, poor fit].
Take `Cc1noc(/C=C/c2cccnc2)c1[N+](=O)[O-]`: the cell number change was -36.9%. Further, the AC50 under setting [1] is 73.1 nM [falling, full curve]. For the same compound, the AC50 under setting [2] is 130 nM [falling, full curve, poor fit].
Take `O=C(NCc1ccc2c(c1)OCO2)C(=O)NCC1OCCCN1S(=O)(=O)c1cc(F)ccc1F` (stereo not drawn): the cell number change amounted to 27.9%. The AC50 under setting [2] was 29100 nM [rising, single point].
Consider `CC(=O)Nc1sc(C)c(C)c1C(=O)OCC(=O)N(C)C1CCS(=O)(=O)C1` (stereo not drawn), for which the cell number change was found to be 41.9%. The AC50 under setting [1] is 920 nM [rising, full curve, poor fit]. Also, the AC50 under setting [2] was 29100 nM [rising, single point].
As for `CC(=O)NNC(=O)CC(=O)Nc1nc(C23CC4CC(CC(C4)C2)C3)cs1`, the cell number change is -6.76%. For the same compound, under setting [2], the AC50 was 18400 nM [falling, partial curve, poor fit].
Turning to `Cc1ccc(N(Cc2ccc(C(=O)Nc3ccccc3C(=O)NCc3ccco3)cc2)S(C)(=O)=O)cc1C`, the cell number change is 55.3%. In addition, under setting [1], the AC50 was 20600 nM [rising, single point].
For the compound `S=C(NCc1ccncc1)NC1CCCC1`, the cell number change was 4.75%. For the same compound, under setting [1], the AC50 is 73.1 nM [falling, full curve, poor fit].
For `COc1cccc(N2CC(C(=O)Nc3nnc(SCC(=O)c4ccccc4)s3)CC2=O)c1` (stereo not drawn), the cell number change is 6.69%. Moreover, the AC50 under setting [2] is 411 nM [rising, full curve, poor fit].
With `O=C(c1ccc(N2CCCCC2)c([N+](=O)[O-])c1)N(Cc1ccccc1)c1ccccn1`, the cell number change is -23.5%. In addition, the concentration at half-maximal activity (AC50) under setting [2] is 4110 nM [falling, partial curve].
Regarding `CC(NC(=O)Nc1ccccc1Cl)c1ccc2c(c1)OCO2` (stereo not drawn), the AC50 under setting [2] was 580 nM [rising, single point].
As to `CC(=O)Oc1ccc(Oc2ccc(-c3noc(C)n3)cc2)cc1`, the AC50 by setting is: under setting [1], 1160 nM [falling, full curve, poor fit]; under setting [2], 731 nM [falling, full curve].
`O=C(Nc1cc(Cl)ccc1Cl)c1cc(-c2ccco2)on1`: the cell number change came out at 13.9%. Under setting [2], the half-maximal activity concentration (AC50) is 130 nM [rising, partial curve, poor fit].
As for `CCN(c1ccccc1C)S(=O)(=O)c1cc2c3c(c1)CCC(=O)N3CCC2`, the cell number change is -20.5%. For the same compound, the AC50 under setting [1] was 3260 nM [falling, full curve, poor fit]. Also, the AC50 under setting [2] is 6510 nM [falling, partial curve].

The record behind these values is PubChem BioAssay AID2685 (National Center for Advancing Translational Sciences (NCATS), 2010).
